The match of structure and compound is tentative.
Molecular target: rat follicle stimulating hormone receptor (rFSHR) (Rattus norvegicus, UniProt P20395)
Assay: Intracellular cAMP measurement (HTRF) assay, antagonism of EC70 of hFSH
Conditions: read-out: Class (IC50 to antagonise an EC70 of FSH receptors agonist such as hFSH), HEK293 cells expressing rFSHR, 1 ng/ml hFSH (EC70)
Text: Intracellular cAMP Measurement Assay
The Intracellular cAMP measurement assay is a functional cell-based assay used to study GPCR function. This method relies on a Time-Resolved Fluorescence (HTRF) assay to measure the cAMP accumulation upon receptor-mediated Gs protein activation in cells expressing recombinant GPCR or in cells from native tissues. In brief, this method is a competitive immunoassay between native cAMP produced by cells and the cAMP labeled with a fluorescent tag. The endogenously produced cAMP competes with exogenous added d2-labelled cAMP for the cAMP binding site on a Eu3+ cryptate labelled anti-cAMP antibody. The d2-labelled cAMP and the Eu^3+ labelled antibody produces a basal fluroresence via HTRF and therefore an intracellular increase in unlabelled cAMP is detected as decrease in this signal. cAMP is one of the most important intracellular mediators. […]
HTRF cAMP assay: On the day of the experiment, cells were detached from the Petri dish and distributed in a low volume, black-walled 384-well plate at a density of 5,000 cells/well in an assay buffer containing 1 mM IBMX to prevent cAMP degradation by cytoplasmic phosphodiesterases. […] Assay was then incubated for 1 hr at room temperature, and HTRF signal was measured after excitation at 337 nm, and dual emission at 620 and 665 nm, using a RubyStar fluorimeter (BMG Labtechnologies). […]

Chains of the proteins cited; added tags and fusions are not shown. Residues count along the entry.
UniProt P20395, 18-692 limits assumed: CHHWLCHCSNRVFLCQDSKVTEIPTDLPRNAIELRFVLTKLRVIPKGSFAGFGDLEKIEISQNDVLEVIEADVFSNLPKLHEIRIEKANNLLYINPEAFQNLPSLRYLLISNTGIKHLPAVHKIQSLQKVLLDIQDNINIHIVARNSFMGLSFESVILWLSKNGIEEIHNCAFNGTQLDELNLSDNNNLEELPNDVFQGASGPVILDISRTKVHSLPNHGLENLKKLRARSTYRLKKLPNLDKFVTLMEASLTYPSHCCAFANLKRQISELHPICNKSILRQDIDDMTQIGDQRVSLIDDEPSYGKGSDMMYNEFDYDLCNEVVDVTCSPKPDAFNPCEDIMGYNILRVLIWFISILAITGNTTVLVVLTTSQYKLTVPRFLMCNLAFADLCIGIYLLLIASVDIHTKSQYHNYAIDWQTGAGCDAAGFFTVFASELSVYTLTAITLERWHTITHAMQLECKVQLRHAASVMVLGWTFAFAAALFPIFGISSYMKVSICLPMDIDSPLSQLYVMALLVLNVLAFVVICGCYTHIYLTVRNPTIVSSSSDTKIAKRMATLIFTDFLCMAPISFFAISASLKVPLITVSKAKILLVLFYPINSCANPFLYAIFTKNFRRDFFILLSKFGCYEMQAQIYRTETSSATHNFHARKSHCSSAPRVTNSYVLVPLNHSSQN

Compound | IC50 [nM]
COc1ccc(C(=O)Nc2ccc(C(C)(C)CNC(=O)c3ccccc3)cc2)cc1OC | 150 to 400
COc1ccc(C(=O)Nc2ccc(C(C)(C)CNC(=O)c3nn(C)c4ccccc34)cc2)cc1OC | 150 to 400
